Our source for the binding values is patent US20090035303A1.

Protein sequences, listed by entry. Tags and fused reporters are not part of them. Lines headed by an entry give the natural chain unless they say otherwise; changes in a name come on top.
UniProt Q9H7B4: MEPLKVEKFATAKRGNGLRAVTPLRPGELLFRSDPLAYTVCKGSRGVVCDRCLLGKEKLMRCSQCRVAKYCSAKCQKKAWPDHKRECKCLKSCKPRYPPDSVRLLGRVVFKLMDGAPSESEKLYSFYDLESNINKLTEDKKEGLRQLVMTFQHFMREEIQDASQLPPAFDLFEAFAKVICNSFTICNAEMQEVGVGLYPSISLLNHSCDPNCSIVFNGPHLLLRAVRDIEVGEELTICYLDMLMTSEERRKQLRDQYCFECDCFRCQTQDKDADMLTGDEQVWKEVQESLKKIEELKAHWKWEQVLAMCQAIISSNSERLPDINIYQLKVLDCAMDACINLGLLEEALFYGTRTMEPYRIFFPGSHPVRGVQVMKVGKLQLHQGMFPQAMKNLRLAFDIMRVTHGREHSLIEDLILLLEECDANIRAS

These are yes or no findings as the source states them, for the method shown. Some binding calls cover weakened binding; strength is not graded here.

In the experiment the target is ZNFN3A1 (human) (UniProt Q9H7B4). Put plainly: yeast two-hybrid screening.

As to “90-kD heat shock protein (HSP90A) (from UniProt P07900 1-732)”, the binding result is “binds”.
